Measured values taken from the supplement of paper PMC11006884.
Only a part is listed here, and it is no random draw.

Compound: COC(=O)C#Cc1ccccc1 [methyl 3-phenylpropiolate]
Experiment: log2 ratio of iodoacetamide-alkyne labeling of the cysteine site, DMSO over compound (competition); higher = stronger covalent engagement of the cysteine by the compound, active = 1 or more
Conditions: 500 µM; treatment time 1 h; system: HEK293T cell lysate
Method in brief: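 The log2 competition ratio per cysteine is defined as mean reporter intensity in control channels over mean reporter intensity in compound channels. Lysate from HEK293T cells (2 mg/mL) received electrophile (500 µM) or vehicle for 1 h at ambient temperature, followed by iodoacetamide alkyne for 1 h. Samples were clicked to sCIP-TMT reagents, pooled, trypsin-digested overnight at 37 °C, streptavidin-enriched, acid-eluted and run on Orbitrap Eclipse LC-MS/MS with FAIMS, with quantification in FragPipe. Three replicates with duplicate channels were used, and any cysteine quantified in only one replicate was excluded.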

log2 ratio of iodoacetamide-alkyne labeling, inactive:
PRDM2 C718 (UniProt Q13029) 0.513
KLC1 C55 (UniProt Q07866) 0.381
CSTF3 C176 (UniProt Q12996) -0.0873
UniProt Q12948_C550 0.491
EP300 C1164 (UniProt Q09472) 0.615
UBE3A C140 (UniProt Q05086) 0.0641
RPL18 C134 (UniProt Q07020) 0.213
ACACA C1230 (UniProt Q13085) 0.772
CSTF3 C646 (UniProt Q12996) 0.187
SCAP C875 (UniProt Q12770) 0.46
GTF3C1 C42 (UniProt Q12789) 0.436
ACACA C1297 (UniProt Q13085) 0.156
UniProt Q13155_C168 0.346
SNTB2 C374 (UniProt Q13425) 0.146
UniProt Q13163_C300 -0.976
HNRNPA0 C7 (UniProt Q13151) 0.00321
LMNB2 C212 (UniProt Q03252) 0.214
CSTF3 C536 (UniProt Q12996) 0.38
STX5 C68 (UniProt Q13190) 0.4
NFIA C404 (UniProt Q12857) 0.423
DHX9 C242 (UniProt Q08211) -0.0869
SF3A3 C437 (UniProt Q12874) 0.056
PRDX1 C173 (UniProt Q06830) 0.302
AP1B1 C921 (UniProt Q10567) 0.495
TRIM32 C23 (UniProt Q13049) -0.174
FLII C46 (UniProt Q13045) 0.205
PTPN13 C2229 (UniProt Q12923) -0.0355
IFIT5 C137 (UniProt Q13325) 0.261
PTPN11 C318 (UniProt Q06124) 0.735
TP53BP1 C896 (UniProt Q12888) 0.0531
CHAF1A C181 (UniProt Q13111) -0.312
TP53BP1 C101 (UniProt Q12888) 0.242
UBE2V1 C144 (UniProt Q13404) 0.136
CBX3 C69 (UniProt Q13185) 0.193
GAB1 C8 (UniProt Q13480) 0.326
TRAF2 C107 (UniProt Q12933) 0.213

For convenience, part of the list above.
log2 ratio of iodoacetamide-alkyne labeling, inactive:
ACACA C1297 (UniProt Q13085) 0.156
UniProt Q13155_C168 0.346
SNTB2 C374 (UniProt Q13425) 0.146
UniProt Q13163_C300 -0.976
HNRNPA0 C7 (UniProt Q13151) 0.00321
LMNB2 C212 (UniProt Q03252) 0.214
CSTF3 C536 (UniProt Q12996) 0.38

Next part:

log2 ratio of iodoacetamide-alkyne labeling, active:
CDC20 C364 (UniProt Q12834) 1.22
